# Laboratory results as given in paper PMC3387016.
# By UniProt entry, the sequences of proteins in these tests, tags left out. Where a name states a change or a piece, a line headed by the entry shows the natural chain unless it says otherwise. Chains listed by the source or under a name are the forms on record and can include a tag or linker.
# G551D-CFTR (Gly to Asp at position 551) (P13569-1, form named): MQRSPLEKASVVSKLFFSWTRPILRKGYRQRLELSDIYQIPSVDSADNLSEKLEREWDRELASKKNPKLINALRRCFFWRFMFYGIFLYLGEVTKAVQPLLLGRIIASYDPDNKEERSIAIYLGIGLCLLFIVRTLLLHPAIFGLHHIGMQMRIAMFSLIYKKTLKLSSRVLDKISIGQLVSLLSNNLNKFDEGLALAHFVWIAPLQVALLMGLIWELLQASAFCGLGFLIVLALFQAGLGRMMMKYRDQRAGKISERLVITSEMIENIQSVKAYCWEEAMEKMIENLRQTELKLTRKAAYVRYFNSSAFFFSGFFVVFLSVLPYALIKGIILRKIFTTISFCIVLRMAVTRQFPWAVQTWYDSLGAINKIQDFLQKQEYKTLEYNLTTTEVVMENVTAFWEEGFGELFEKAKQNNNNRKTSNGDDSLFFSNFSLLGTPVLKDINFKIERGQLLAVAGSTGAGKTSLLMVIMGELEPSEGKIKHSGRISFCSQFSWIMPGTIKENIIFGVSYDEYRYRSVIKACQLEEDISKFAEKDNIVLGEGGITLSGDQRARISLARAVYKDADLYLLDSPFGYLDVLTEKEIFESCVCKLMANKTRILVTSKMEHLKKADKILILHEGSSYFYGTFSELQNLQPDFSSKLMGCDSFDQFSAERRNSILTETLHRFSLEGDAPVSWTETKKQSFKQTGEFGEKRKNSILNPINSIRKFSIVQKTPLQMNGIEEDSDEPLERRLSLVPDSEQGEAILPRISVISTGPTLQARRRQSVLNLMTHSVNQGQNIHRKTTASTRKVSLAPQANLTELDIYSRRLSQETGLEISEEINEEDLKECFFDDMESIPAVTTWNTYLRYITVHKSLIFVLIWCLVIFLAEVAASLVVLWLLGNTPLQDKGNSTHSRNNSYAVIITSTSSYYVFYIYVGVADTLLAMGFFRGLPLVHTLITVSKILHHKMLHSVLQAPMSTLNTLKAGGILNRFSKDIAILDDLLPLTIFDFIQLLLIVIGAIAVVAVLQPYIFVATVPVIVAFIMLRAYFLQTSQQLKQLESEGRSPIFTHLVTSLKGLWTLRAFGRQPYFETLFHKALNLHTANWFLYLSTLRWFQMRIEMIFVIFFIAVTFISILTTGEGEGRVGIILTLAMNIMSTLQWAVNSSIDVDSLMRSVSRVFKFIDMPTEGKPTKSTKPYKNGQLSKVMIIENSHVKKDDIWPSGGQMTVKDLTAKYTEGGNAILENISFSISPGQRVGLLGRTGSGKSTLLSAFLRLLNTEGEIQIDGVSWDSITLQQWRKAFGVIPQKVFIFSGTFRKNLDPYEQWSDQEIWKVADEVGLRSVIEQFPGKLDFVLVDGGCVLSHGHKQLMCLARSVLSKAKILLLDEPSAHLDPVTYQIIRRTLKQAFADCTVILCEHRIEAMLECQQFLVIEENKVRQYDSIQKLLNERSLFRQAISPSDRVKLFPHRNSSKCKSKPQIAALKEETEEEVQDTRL
# Results are given in words; binding and its absence hold for the method and conditions named. Binding seen in cells or lysates may run through a third protein. Some entries that bind do so weakly or less than the wild type.
# Biological target: T1, Calumenin (human (endogenous in HeLa)) (UniProt O43852)
# T1 sequence: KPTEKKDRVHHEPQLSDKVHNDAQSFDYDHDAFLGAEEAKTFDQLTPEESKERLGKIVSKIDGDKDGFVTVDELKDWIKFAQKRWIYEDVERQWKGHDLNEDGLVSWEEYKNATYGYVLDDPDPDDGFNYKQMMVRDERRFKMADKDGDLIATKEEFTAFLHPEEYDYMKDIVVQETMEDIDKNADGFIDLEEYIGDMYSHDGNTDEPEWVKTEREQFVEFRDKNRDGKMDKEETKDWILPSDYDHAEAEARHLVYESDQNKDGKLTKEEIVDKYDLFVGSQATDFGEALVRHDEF
# Assay: co-IP; reverse co-immunoprecipitation (not shown): anti-calumenin antibody on Protein G magnetic beads, whole cell lysate in RIPA buffer; CFTR detected (mature 170 kDa form)
row,binding,Substance
1,binds,G551D-CFTR (Gly to Asp at position 551) (from UniProt P13569-1 1-1480)
2,binds,human wild type CFTR (cystic fibrosis transmembrane conductance regulator) (from UniProt P13569-1 1-1480)
